Data as given in PubChem BioAssay AID1259308 (NCATS, 2017).
Test: 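Candidate targets for better recombinant protein yield in mammalian cells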 (primary screen). Cells: human HEK293 embryonic kidney cells stably expressing firefly luciferase (HEK-CMV-Luc2-Hygro). Reagent: single siRNA against human genes, 0.8 pmol siRNA per well. Timing: 72 h. Measurement: 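Luciferase light (ONE-Glo) measured on one replicate plate set and viability (CellTiter-Glo) on the other, scaled to a negative control siRNA, with robust z-scores and luciferase per cell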. Direction: total luciferase, z-score and total luciferase, % of control: higher = more reporter protein produced; luciferase per cell, z-score: higher = more reporter output per viable cell; viable cells, % of control: higher = more viable cells. Rule for the call: 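Active when the median/MAD z-score for overall luciferase is greater than 3; a gene was taken forward for validation with new siRNAs if at least two of its three siRNAs passed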. Meaning of the calls: active = raised luciferase; inactive = no rise.
Shown is a random part of about 59,000 reagents. About 1,510 of them (2.6%) count as active. 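Calls use total luciferase alone and ignore viability, so some active siRNAs may act by altering cell number.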 Reagents against one gene are numbered here.

gene,reagent no.,"total luciferase, z-score","total luciferase, % of control","luciferase per cell, z-score","viable cells, % of control",activity call
TMEM225 (transmembrane protein 225),1,-0.619,69.6,-0.419,86.8,inactive
TMEM225 (transmembrane protein 225),2,-0.58,70.4,-0.442,88.3,inactive
TMEM225 (transmembrane protein 225),3,0.361,89.1,-0.16,104,inactive
MYRF (myelin regulatory factor),1,2.51,132,1.31,104,inactive
MYRF (myelin regulatory factor),2,4.82,178,3.56,77.7,active
MYRF (myelin regulatory factor),3,-0.0445,81,-0.389,100,inactive
RBBP8NL (RBBP8 N-terminal like),1,0.834,98.5,0.786,89.5,inactive
RBBP8NL (RBBP8 N-terminal like),2,0.829,98.4,0.559,94.9,inactive
RBBP8NL (RBBP8 N-terminal like),3,-0.481,72.3,-0.744,98.3,inactive
ERICH5 (glutamate rich 5),1,-1.99,42.3,0.121,45.8,inactive
ERICH5 (glutamate rich 5),2,-0.721,67.5,-0.669,90,inactive
ERICH5 (glutamate rich 5),3,-1.54,51.3,-1.55,86.1,inactive
TBC1D25 (TBC1 domain family member 25),1,-0.214,77.6,-0.283,93.5,inactive
TBC1D25 (TBC1 domain family member 25),2,0.134,84.6,-0.206,99.7,inactive
TBC1D25 (TBC1 domain family member 25),3,2.92,140,1.8,97.3,inactive
CDH3 (cadherin 3),1,0.659,95,0.162,102,inactive
CDH3 (cadherin 3),2,-0.347,75,-0.497,95.5,inactive
CDH3 (cadherin 3),3,-0.271,76.5,-0.378,94.4,inactive
CYP2C8 (cytochrome P450 family 2 subfamily C member 8),1,0.223,86.3,0.356,87.8,inactive
CYP2C8 (cytochrome P450 family 2 subfamily C member 8),2,-1.06,60.9,-0.905,86.3,inactive
CYP2C8 (cytochrome P450 family 2 subfamily C member 8),3,-0.933,63.3,-0.918,90.1,inactive
CDKN1B (cyclin dependent kinase inhibitor 1B),1,-0.478,72.4,-0.604,94.8,inactive
CDKN1B (cyclin dependent kinase inhibitor 1B),2,-1.83,45.6,-1.51,75.9,inactive
CDKN1B (cyclin dependent kinase inhibitor 1B),3,-0.946,63.1,-1.09,93.8,inactive
GNB3 (G protein subunit beta 3),1,1.16,105,0.923,91.9,inactive
GNB3 (G protein subunit beta 3),2,-0.294,76,-0.486,96.6,inactive
GNB3 (G protein subunit beta 3),3,-1.03,61.3,-1.15,92.6,inactive
DEFB136 (defensin beta 136),1,0.0465,82.8,0.0473,91.4,inactive
DEFB136 (defensin beta 136),2,0.807,97.9,0.0367,108,inactive
DEFB136 (defensin beta 136),3,0.189,85.6,-0.289,103,inactive
USP46 (ubiquitin specific peptidase 46),1,0.947,101,0.677,94.2,inactive
USP46 (ubiquitin specific peptidase 46),2,-1.03,61.3,-1.49,101,inactive
USP46 (ubiquitin specific peptidase 46),3,2.78,137,2,90.4,inactive
MOGAT3 (monoacylglycerol O-acyltransferase 3),1,-0.717,67.6,-0.761,92.3,inactive
MOGAT3 (monoacylglycerol O-acyltransferase 3),2,-0.0961,80,-0.518,102,inactive
MOGAT3 (monoacylglycerol O-acyltransferase 3),3,-1.11,59.9,-0.589,78.1,inactive
"HLA-L (major histocompatibility complex, class I, L (pseudogene))",1,1.57,113,0.724,104,inactive
"HLA-L (major histocompatibility complex, class I, L (pseudogene))",2,0.389,89.6,-0.339,110,inactive
"HLA-L (major histocompatibility complex, class I, L (pseudogene))",3,-0.0494,80.9,-0.893,114,inactive
DDRGK1 (DDRGK domain containing 1),1,-0.273,76.4,-0.604,100,inactive
DDRGK1 (DDRGK domain containing 1),2,0.209,86,0.28,89.3,inactive
DDRGK1 (DDRGK domain containing 1),3,-0.981,62.4,-0.824,86.6,inactive
OR6C3 (olfactory receptor family 6 subfamily C member 3),1,2.33,128,2.6,72.2,inactive
OR6C3 (olfactory receptor family 6 subfamily C member 3),2,-0.15,78.9,-0.604,103,inactive
OR6C3 (olfactory receptor family 6 subfamily C member 3),3,0.493,91.7,0.12,99.3,inactive
CHST5 (carbohydrate sulfotransferase 5),1,-0.958,62.8,-0.835,87.5,inactive
CHST5 (carbohydrate sulfotransferase 5),2,-0.525,71.4,-1.32,113,inactive
CHST5 (carbohydrate sulfotransferase 5),3,-0.893,64.1,-0.551,82.8,inactive
YPEL4 (yippee like 4),1,-1.6,50.1,-0.658,66.5,inactive
YPEL4 (yippee like 4),2,-0.171,78.5,-0.227,93.1,inactive
YPEL4 (yippee like 4),3,1.53,112,0.774,102,inactive
AVEN (apoptosis and caspase activation inhibitor),1,1.2,106,0.935,92.3,inactive
AVEN (apoptosis and caspase activation inhibitor),2,-0.162,78.7,-0.9,111,inactive
AVEN (apoptosis and caspase activation inhibitor),3,0.0747,83.4,-0.733,113,inactive
NOX5 (NADPH oxidase 5),1,-1.16,58.9,-0.685,78.8,inactive
NOX5 (NADPH oxidase 5),2,-1.72,47.6,-2.33,98.3,inactive
NOX5 (NADPH oxidase 5),3,2.75,137,2.22,85,inactive
